# Measured data: PubChem BioAssay AID1224830 (NIAID, 2016)
# Screen: 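Regulators of TLR4 signalling towards TNF-alpha in macrophage-like cells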 (primary screen)
# Cells: human THP-1 monocytic leukaemia cells, TNF dual-luciferase reporter clone, PMA-differentiated to macrophage-like cells
# Knock-down reagent: siRNA pool against human genes, 50 nM
# Timing: LPS for 4 h, given about 3 days after siRNA transfection
# Conditions: bacterial LPS (TLR4 ligand), 10 ng/ml
# Measured: 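TNF firefly reporter luminescence divided by renilla, normalised to the plate median, then turned into a robust z-score for each replicate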
# Reading the numbers: TNF reporter robust z-score: higher = stronger TNF reporter response to LPS
# Call rule: 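Each well counts as active if its z-score is over 2.8 or under -1.5; controls are left without a call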
# Here is a random part of about 18,000 reagents. About 2,900 of them (16%) were called active. 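Calls are made per well; low scores hint the gene aids the LPS response, high scores that it dampens it.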 Repeated entries: four replicate wells of each siRNA pool.
Target gene,TNF reporter robust z-score,activity call
SPATA16,-0.74,inactive
SPATA16,-0.29,inactive
SPATA16,-0.22,inactive
SPATA16,-0.12,inactive
UTP25,-1.81,active
UTP25,-1.41,inactive
UTP25,-1.17,inactive
UTP25,-1.5,inactive
FANCC,-0.72,inactive
FANCC,-0.19,inactive
FANCC,0.25,inactive
FANCC,-0.63,inactive
DENND1C,-1.5,inactive
DENND1C,-1.44,inactive
DENND1C,-1.55,active
DENND1C,-1.53,active
KANK3,-0.11,inactive
KANK3,0.01,inactive
KANK3,0.54,inactive
KANK3,-0.49,inactive
EDEM2,-0.57,inactive
EDEM2,-0.76,inactive
EDEM2,-0.73,inactive
EDEM2,-0.19,inactive
SLC19A4P,0.06,inactive
SLC19A4P,0.99,inactive
SLC19A4P,0.55,inactive
MTRF1L,-0.25,inactive
MTRF1L,-0.14,inactive
MTRF1L,-0.76,inactive
MTRF1L,-0.65,inactive
RPS6KA1,-1.01,inactive
RPS6KA1,0.25,inactive
RPS6KA1,-0.05,inactive
RPS6KA1,0.47,inactive
CLPTM1,-0.35,inactive
CLPTM1,-0.09,inactive
CLPTM1,-0.24,inactive
CLPTM1,0.12,inactive

The list goes on (9 carried over from the part before).
Target gene,TNF reporter robust z-score,activity call
MTRF1L,-0.65,inactive
RPS6KA1,-1.01,inactive
RPS6KA1,0.25,inactive
RPS6KA1,-0.05,inactive
RPS6KA1,0.47,inactive
CLPTM1,-0.35,inactive
CLPTM1,-0.09,inactive
CLPTM1,-0.24,inactive
CLPTM1,0.12,inactive
SMIM12,2.56,inactive
SMIM12,1.89,inactive
SMIM12,3.59,active
SMIM12,1.75,inactive
DLGAP5,0.42,inactive
DLGAP5,-1.19,inactive
DLGAP5,-0.3,inactive
DLGAP5,-0.85,inactive
CLHC1,-0.68,inactive
CLHC1,1.25,inactive
CLHC1,0,inactive
CLHC1,0.93,inactive
TNRC18,0.4,inactive
TNRC18,-0.09,inactive
TNRC18,-0.97,inactive
TNRC18,-0.41,inactive
CLSTN1,2.6,inactive
CLSTN1,3.67,active
CLSTN1,-1.04,inactive
CLSTN1,4.16,active
PNPO,-0.78,inactive
PNPO,0.32,inactive
PNPO,-0.29,inactive
PNPO,0.89,inactive
DVL3,0.18,inactive
DVL3,0.73,inactive
DVL3,0.57,inactive
DVL3,1.13,inactive
LRIT1,1.15,inactive
LRIT1,-0.51,inactive
LRIT1,-0.47,inactive
LRIT1,-0.27,inactive
TOP3B,0.14,inactive
TOP3B,0.58,inactive
TOP3B,1.02,inactive
TOP3B,0.98,inactive
DHX16,3.27,active
DHX16,5.66,active
DHX16,2.66,inactive
DHX16,5.6,active
PRKAG2,0.02,inactive
PRKAG2,-0.24,inactive
PRKAG2,0.38,inactive
PRKAG2,2.62,inactive
ACOT2,-0.75,inactive
ACOT2,-0.42,inactive
ACOT2,-0.61,inactive
ACOT2,-0.81,inactive
HDAC1,-0.3,inactive
HDAC1,-0.2,inactive
HDAC1,-0.52,inactive
HDAC1,0.1,inactive
MC1R,-0.47,inactive
MC1R,0.27,inactive
MC1R,-0.59,inactive
MC1R,0.71,inactive
DCAF13,-0.23,inactive
DCAF13,-0.1,inactive
DCAF13,-0.51,inactive
DCAF13,-0.39,inactive
FOXF2,-1.28,inactive
FOXF2,-0.35,inactive
FOXF2,0.26,inactive
FOXF2,-0.55,inactive
TMEM237,-0.65,inactive
TMEM237,0.14,inactive
TMEM237,-0.07,inactive
TMEM237,1.09,inactive
ERG28,0.54,inactive
ERG28,1.33,inactive
ERG28,1.34,inactive
ERG28,0.2,inactive
